These are literature values, as cited in PMC10450579, “A biophysical framework for double-drugging kinases” (Proceedings of the National Academy of Sciences of the …, 2023).

A value given as a limit tells only on which side of the number the result lay.

This series concerns the target Abl allosteric site. The conditions noted are these: binding to allosteric site; cited from earlier work.

`Cc1ccc(NC(=O)c2ccc(CN3CCN(C)CC3)cc2)cc1Nc1nccc(-c2cccnc2)n1` [imatinib]: the Kd is > 10 µM.
